This is an account of results in article PMC11218372.

The assay addresses CA6-SazCAtrunc, carbonic anhydrase from Sulfurihydrogenibium azorense, truncated form (Sulfurihydrogenibium azorense) (UniProt C1DTU5). As to the kind of experiment: SEC; Superdex 75 (26/60), 20 mM Tris pH 7.5, 150 mM NaCl, after His-tag affinity chromatography; both purified. (SEC sorts molecules by how far they enter the pores of the column.)

These are yes or no findings as the source states them, for the method shown.

B1: CA6-SazCAtrunc, carbonic anhydrase from Sulfurihydrogenibium azorense, truncated form (enzyme, UniProt C1DTU5 27-254)
chain: AEVHHWSYEGENGPENWAKLNPEYFWCNLKNQSPVDISDNYKVHAKLEKLHINYNKAVNPEIVNNGHTIQVNVLEDFKLNIKGKEYHLKQFHFHAPSEHTVNGKYYPLEMHLVHKDKDGNIAVIGVFFKEGKANPELDKVFKNALKEEGSKVFDGSININALLPPVKNYYTYSGSLTTPPCTEGVLWIVLKQPITASKQQIELFKSIMKHNNNRPTQPINSRYILESN
With B1, the binding result is on record as “no binding”.
